# Inconclusive results, whose numbers are uncertain, are shown with a selection of clear calls. Potencies beside an inconclusive call are fits to weak or partial responses and may not hold up. The source made the active and inactive calls. The call rests on the fitted dose curve; in most records, active means well fitted activation curve with a large enough effect; inconclusive means small, poorly fitted or top-dose-only effect, or another doubt; inactive means no such curve, though single readings can be large or run the other way.
# Target: Rap guanine nucleotide exchange factor 3 (Homo sapiens) (UniProt O95398)
# Experiment: Counterscreen qHTS for agonist of cAMP-regulated guanine nucleotide exchange factor 3 (EPAC1) (AID 1645889); further: nearly all actives have a fitted effect of over 40% in size; on activation: % of control where 0% means no effect
# Conditions: EPAC1 Rap1B-BODIPY-GDP exchange, fluorescence; activation: at 154 µM (top of the series) unless noted
# Summary of the method: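 Rap1B-BODIPY-GDP 250 nM + GDP 50 uM; cpds 7-pt, final 9.74 nM–152 uM (activator mode) or from 7.32 nM upwards (inhibitor mode); RT; FI 480/540 nm at 5 and 30 min, then ± cAMP, reread.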
# Potency means the concentration at half of the fitted maximal effect.
SMILES,activation,Potency
COc1ccc(/C=C2/SC(=O)N(CCC(=O)Nc3ccc(S(=O)(=O)Nc4nccs4)cc3)C2=O)cc1,inactive: 18.1%,–
O=C1N(Cc2ccccc2)c2ccccc2C1(O)c1c[nH]c2ccccc12 (stereo not given),inconclusive: 33.7% [activator],–
CC(NC(=O)COc1ccccc1-c1ccccc1)c1ccccc1 (stereo not given),inactive: 2.54%,–
CC(C)(C)Cc1c(-c2ccco2)nc2ccc(Cl)cn12,inactive: 3.65% [at 30.8 µM],–
Oc1ccc(NCc2cccc(OCc3ccccc3)c2)cc1,–,"inconclusive: 2 µM [activator, full curve, poor fit]"
Cc1ccc(C(C)C)c(OCC(=O)NCC2(N3CCOCC3)CCCCC2)c1,inconclusive: 37.7% [activator],–
COc1ccc(C(CNC(=O)c2cccc(S(=O)(=O)Nc3ccc(C)cc3)c2)N2CCOCC2)cc1 (stereo not given),inactive: 9%,–
CC1C/C(=C/c2cccn2C)C(=O)/C(=C/c2cccn2C)C1 (stereo not given),–,active: 79.4 µM
CCC(C(=O)Nc1cc(OC)ccc1OC)n1nc(-c2ccccc2)c2c(c1=O)CCCC2 (stereo not given),–,"inconclusive: 15.8 µM [activator, single point]"
Cc1cc(Cl)ccc1OCCCC(=O)OCC(=O)c1c(N)n(C)c(=O)n(C)c1=O,inactive: 27.4% [at 30.8 µM],–
O=C(/C=C/c1ccc2c(c1)OCO2)Nc1cc(S(=O)(=O)N2CCOCC2)ccc1N1CCOCC1,inconclusive: 36.4% [activator],–
Oc1ccc(-c2csc(Nc3cccnc3)n2)cc1,–,"inconclusive: 1.12 µM [activator, full curve, poor fit]"
COc1ccc(OCc2nc3ccccc3n2C(C)c2ccccc2)cc1 (stereo not given),–,"inconclusive: 7.94 µM [activator, full curve, poor fit]"
N#Cc1c(SCC(=O)Nc2nncs2)sc2c(O)cc(=O)[nH]c12,inactive: 26.2%,–
Fc1ccc(C(Nc2ccccn2)c2c[nH]c3ccccc23)cc1 (stereo not given),inconclusive: 57.2% [activator] [at 30.8 µM],–
Cc1ccccc1C1CC(=O)c2ccccc2C1C (stereo not given),inactive: 2.73%,–
COc1ccc(Cl)cc1NC(=O)CN(C)Cc1cccs1,–,"inconclusive: 22.4 µM [activator, partial curve, poor fit]"
CCN1CCc2c(sc(NC(=O)c3cc4ccccc4cc3OC)c2C(N)=O)C1,–,"inconclusive: 6.31 µM [activator, partial curve, poor fit]"
CC(Oc1ccc(Cl)cc1)C(=O)Nc1sccc1C(N)=O (stereo not given),inactive: 24.1% [at 30.8 µM],–
CCOCc1nnc(NC(=O)C2c3ccccc3Oc3ccccc32)s1,inactive: -14.4%,–

# Another view of part of the listing above.
SMILES	activation	Potency
COc1ccc(/C=C2/SC(=O)N(CCC(=O)Nc3ccc(S(=O)(=O)Nc4nccs4)cc3)C2=O)cc1	inactive: 18.1%	–
CC(C)(C)Cc1c(-c2ccco2)nc2ccc(Cl)cn12	inactive: 3.65% [at 30.8 µM]	–
Oc1ccc(NCc2cccc(OCc3ccccc3)c2)cc1	–	inconclusive: 2 µM [activator, full curve, poor fit]
COc1ccc(C(CNC(=O)c2cccc(S(=O)(=O)Nc3ccc(C)cc3)c2)N2CCOCC2)cc1 (stereo not given)	inactive: 9%	–
CCC(C(=O)Nc1cc(OC)ccc1OC)n1nc(-c2ccccc2)c2c(c1=O)CCCC2 (stereo not given)	–	inconclusive: 15.8 µM [activator, single point]
O=C(/C=C/c1ccc2c(c1)OCO2)Nc1cc(S(=O)(=O)N2CCOCC2)ccc1N1CCOCC1	inconclusive: 36.4% [activator]	–
COc1ccc(OCc2nc3ccccc3n2C(C)c2ccccc2)cc1 (stereo not given)	–	inconclusive: 7.94 µM [activator, full curve, poor fit]
Fc1ccc(C(Nc2ccccn2)c2c[nH]c3ccccc23)cc1 (stereo not given)	inconclusive: 57.2% [activator] [at 30.8 µM]	–
Cc1ccccc1C1CC(=O)c2ccccc2C1C (stereo not given)	inactive: 2.73%	–
CCN1CCc2c(sc(NC(=O)c3cc4ccccc4cc3OC)c2C(N)=O)C1	–	inconclusive: 6.31 µM [activator, partial curve, poor fit]
CCOCc1nnc(NC(=O)C2c3ccccc3Oc3ccccc32)s1	inactive: -14.4%	–

# Carrying on:

SMILES,activation,Potency
O=C(CCN1C(=O)S/C(=C\c2ccc(Cl)cc2)C1=O)Nc1ccc(C(=O)O)cc1,inactive: 13.4%,–
COc1ccc(C(CC(=O)N2CCCC2)c2ccc(F)cc2)cc1 (stereo not given),inactive: 0.37% [at 30.8 µM],–
O=C(NCc1ccco1)c1sc(=S)n2c1[nH]c(=O)c1ccccc12,inactive: -8.6% [at 30.8 µM],–
Cc1cccc(C(=O)OCC(=O)c2ccc(CC(=O)N3CCOCC3)s2)c1C,inconclusive: 34.5% [activator],–
CCCCC(=O)N(c1ccc(C(=O)O)cc1)c1nc(-c2ccc(Cl)cc2)c(CC)s1,inactive: 19.6% [at 30.8 µM],–
C=C1SC(Nc2c(C)cc(C)cc2C)=NC12CCCCC2,inactive: 11.5%,–
Cc1nc2sc(C(c3cccs3)N3CCN(c4ccccc4)CC3)c(O)n2n1 (stereo not given),inconclusive: 39.4% [activator],–
Cc1cc2ccccn2c1C(=O)c1ccc(F)cc1,inconclusive: 43.7% [activator],–
CCOc1ccc(-n2c(C)nc3cc(C(=O)NCc4ccc(C)cc4)ccc32)cc1,inactive: 6.71%,–
N#Cc1c(N)c(C#N)c(-c2ccc(O)cc2)c2c1CCCC2,–,"inconclusive: 10 µM [activator, full curve, poor fit]"
Cc1ccc(-n2c(SCC(=O)N/N=C/c3ccccc3C(=O)O)nnc2-c2ccc(Cl)cc2)cc1,inconclusive: 28.7% [activator],–
Cc1ccc2nc(-c3ccc(NC(=O)CSc4nccc(=O)[nH]4)cc3)sc2c1,inactive: 10.3%,–
CC(C)c1nc(SCC(=O)N2CCCc3ccccc32)c2c(=O)n(C)c(=O)n(C)c2n1,inconclusive: 54.4% [activator],–
CCn1c(SCC(=O)Nc2sc3c(c2C(N)=O)CCC(C)C3)nnc1-c1ccco1 (stereo not given),inactive: 19.2%,–
Cc1nnc2ccc(-c3ccc(NC(=O)Cc4cccs4)cc3)nn12,inactive: 9.02% [at 30.8 µM],–
CCc1nc2c(OCC3CCCCC3)cccn2c1N(C)C(=O)c1ccc(C)cc1,–,"inconclusive: 11.2 µM [activator, full curve, poor fit]"
N#CCC(=O)N/N=C/c1coc2ccccc2c1=O,inconclusive: 27.2% [activator],–
COCCCNC(=O)C[C@@H]1C[C@@]2(C(=O)OC)CCCCC=C2N(Cc2cccc3ccccc23)C1=O,inconclusive: 39.9% [activator] [at 30.8 µM],–
CCC(=O)NC(c1cc(Cl)c2ccccc2c1O)C(C)C (stereo not given),inactive: 23.8%,–
CC1=NN(c2ccccc2)C(=O)C1/C=C1\NC(=S)NC1=O (stereo not given),–,"inconclusive: 14.1 µM [activator, full curve]"

# Reference: PubChem BioAssay (NCATS)
